Test results from US9198422B2, “Pesticidal pyrazole compounds” (BASF SE, priority 2011, dated 2015).
Some entries share one result that the patent states for a list of compounds.

Experiments:
Type in all cases: in vivo
Aphis craccivora = assay: B.1 Cowpea aphid spray test on potted cowpea plants; details: 500 ppm; population reduction assessed after 24, 72 and 120 hours
Aphis gossypii = assay: B.2 Cotton aphid, mixed life stages, spray test on cotton plants; details: 10 ppm; after 5 days
Method: B.2 Cotton Aphid (Aphis gossypii, Mixed Life Stages)
(§1) The active compounds were formulated in cyclohexanone as a 10,000 ppm solution supplied in 1.3 ml ABgene® tubes. These tubes were inserted into an automated electrostatic sprayer equipped with an atomizing nozzle and they served as stock solutions for which lower dilutions were made in 1:1 (vol:vol) water:aceton. A nonionic surfactant (Kinetic®) was included in the solution at a volume of 0.01% (v/v).
Cotton plants at the cotyledon stage were infested with aphids prior to treatment by placing a heavily infested leaf from the main aphid colony on top of each cotyledon. Aphids were allowed to transfer overnight to accomplish an infestation of 80-100 aphids per plant and the host leaf was removed. The infested plants were then sprayed by an automated electrostatic plant sprayer equipped with an atomizing spray nozzle. The plants were dried in the sprayer fume hood, removed from the sprayer, and then maintained in a growth room under fluorescent lighting in a 24-hr photoperiod at 25° C. and 20-40% relative humidity. Aphid mortality on the treated plants, relative to mortality on untreated control plants, was determined after 5 days.

Bemisia argentifolii = assay: B.3 Silverleaf whitefly, adult, spray test on cotton plants; details: 10 ppm; 3 days after treatment
Method: B.3 Silverleaf Whitefly (Bemisia argentifolii, Adult)
as §1
Cotton plants at the cotyledon stage (one plant per pot) were sprayed by an automated electrostatic plant sprayer equipped with an atomizing spray nozzle. The plants were dried in the sprayer fume hood and then removed from the sprayer. Each pot was placed into a plastic cup and 10 to 12 whitefly adults (approximately 3-5 days old) were introduced. The insects were collected using an aspirator and 0.6 cm, nontoxic Tygon® tubing (R-3603) connected to a barrier pipette tip. The tip, containing the collected insects, was then gently inserted into the soil containing the treated plant, allowing insects to crawl out of the tip to reach the foliage for feeding. Cups were covered with a reusable screened lid (150-micron mesh polyester screen PeCap from Tetko, Inc.). Test plants were maintained in a growth room at 25° C. and 20-40% relative humidity for 3 days, avoiding direct exposure to fluorescent light (24 hour photoperiod) to prevent trapping of heat inside the cup. Mortality was assessed 3 days after treatment, compared to untreated control plants.

Megoura viciae = assay: B.4 Vetch aphid bean leaf disk microtiter test; details: 2500 ppm; 6 days
Myzus persicae = assay: B.5 Green peach aphid spray test on bell pepper plants; details: 10 ppm; after 5 days

Measured: mortality in comparison with untreated controls

CCN(C(=O)c1cnn(C(C)CC#N)c1C)c1ccnnc1 (stereo not drawn) [I-76]
at least 75%: Aphis craccivora | Aphis gossypii | Bemisia argentifolii | Megoura viciae | Myzus persicae

CCN(C(=O)c1cnn(C(C)c2cccnc2)c1C)c1ccnnc1 (stereo not drawn) [I-148]
at least 75%: Aphis craccivora | Aphis gossypii | Bemisia argentifolii | Myzus persicae

CCN(C(=O)c1cnn(C(C)C(C)(C)C)c1C)c1ccnnc1 (racemic) [I-46]
at least 75%: Aphis craccivora | Aphis gossypii | Bemisia argentifolii | Megoura viciae | Myzus persicae

CCN(C(=O)c1cnn(C2CCCCC2)c1C)c1ccnnc1 [I-14]
at least 75%: Aphis craccivora | Aphis gossypii | Bemisia argentifolii | Megoura viciae | Myzus persicae

Cc1c(C(=O)Nc2ccnnc2)cnn1C1CCCCC1 [I-12]
at least 75%: Aphis craccivora | Aphis gossypii | Bemisia argentifolii | Megoura viciae | Myzus persicae

Cc1c(C(=O)Nc2cccnc2)cnn1C1CCN(C)CC1 [I-90]
at least 75%: Aphis gossypii | Bemisia argentifolii | Myzus persicae

COCN(C(=O)c1cnn(C(C)(C)C(F)(F)F)c1C)c1cccnc1 [I-91]
at least 75%: Aphis craccivora | Aphis gossypii | Bemisia argentifolii | Megoura viciae | Myzus persicae

Cc1c(C(=O)N(C)c2ccnnc2)cnn1C(C)C(F)(F)C(F)C(F)(F)F (stereo not drawn) [I-28]
at least 75%: Aphis craccivora | Aphis gossypii | Bemisia argentifolii | Megoura viciae | Myzus persicae

Cc1c(C(=O)N(C)c2ccnnc2)cnn1C1(C#N)CCCCC1 [I-139]
at least 75%: Aphis craccivora | Bemisia argentifolii

CCOCN(C(=O)c1cnn(C(C)(C)C(F)(F)F)c1C)c1ccnnc1 [I-87]
at least 75%: Aphis craccivora | Aphis gossypii | Bemisia argentifolii | Megoura viciae | Myzus persicae

CCN(C(=O)c1cnn(C(C)C2(C)OCCS2)c1C)c1ccnnc1 (stereo not drawn) [I-238]
at least 75%: Aphis craccivora | Aphis gossypii | Bemisia argentifolii | Myzus persicae

CCOCN(C(=O)c1cnn(C(C)C2CC2)c1C)c1ccnnc1 (stereo not drawn) [I-24]
at least 75%: Aphis craccivora | Aphis gossypii | Bemisia argentifolii | Megoura viciae | Myzus persicae

Cc1c(C(=O)N(C)c2ccnnc2)cnn1C(C)C(F)(F)F (stereo not drawn) [I-368]
at least 75%: Bemisia argentifolii

CCN(C(=O)c1cnn(C(C)C(F)(F)F)c1C)c1cccnc1 (stereo not drawn) [I-379]
at least 75%: Aphis craccivora | Aphis gossypii | Bemisia argentifolii | Megoura viciae | Myzus persicae

CCN(C(=O)c1cnn(C(C)C2CCOCC2)c1C)c1ccnnc1 (racemic) [I-177]
at least 75%: Aphis craccivora | Bemisia argentifolii | Myzus persicae

CCN(C(=O)c1cnn(C(C)CC(C)C)c1C)c1ccnnc1 (stereo not drawn) [I-266]
at least 75%: Aphis craccivora | Bemisia argentifolii | Myzus persicae

CCC(C(C)C)C(C)n1ncc(C(=O)N(CC)c2ccnnc2)c1C (stereo not drawn) [I-260]
at least 75%: Aphis craccivora | Bemisia argentifolii

Cc1c(C(=O)Nc2ccnnc2)cnn1C(C)c1ccccn1 (stereo not drawn) [I-188]
at least 75%: Aphis craccivora | Aphis gossypii | Bemisia argentifolii | Myzus persicae

Cc1c(C(=O)Nc2ccnnc2)cnn1C(C)c1ccccc1 (racemic) [I-167]
at least 75%: Aphis craccivora | Aphis gossypii | Bemisia argentifolii | Myzus persicae

CCN(C(=O)c1cnn(C2(C(F)(F)F)CCOCC2)c1C)c1ccnnc1 [I-128]
at least 75%: Aphis craccivora | Bemisia argentifolii | Megoura viciae | Myzus persicae

Cc1c(C(=O)N(C)c2ccnnc2)cnn1C(C)C1CC1 (stereo not drawn) [I-367]
at least 75%: Bemisia argentifolii

CCN(C(=O)c1cnn(C(C)c2cccnc2)c1C)c1cccnc1 (stereo not drawn) [I-149]
at least 75%: Aphis craccivora | Aphis gossypii | Bemisia argentifolii | Myzus persicae

Cc1c(C(=O)N(C)c2ccnnc2)cnn1C(C(C)C)C(F)(F)F (stereo not drawn) [I-277]
at least 75%: Aphis craccivora | Aphis gossypii | Bemisia argentifolii | Myzus persicae

CCN(C(=O)c1cnn(C2(C#N)CCCCC2)c1C)c1ccnnc1 [I-153]
at least 75%: Aphis craccivora | Bemisia argentifolii | Myzus persicae

CCN(C(=O)c1cnn(C(C)c2ccccn2)c1C)c1ccnnc1 (stereo not drawn) [I-190]
at least 75%: Aphis craccivora | Aphis gossypii | Bemisia argentifolii | Myzus persicae

CCN(C(=O)c1cnn(C(C)c2ccccc2)c1C)c1ccnnc1 (racemic) [I-169]
at least 75%: Aphis craccivora | Aphis gossypii | Bemisia argentifolii | Myzus persicae

Cc1c(C(=O)Nc2ccnnc2)cnn1C(C)COc1ccccc1 (stereo not drawn) [I-292]
at least 75%: Aphis craccivora | Bemisia argentifolii | Myzus persicae
